Results deposited as PubChem BioAssay AID686938 (Drosophila RNAi Screening Center, 2013).

Aim: 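Fly genes required for calcium entry once internal stores are emptied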 (primary screen)
System: Drosophila S2R+ cells
Reagents: long dsRNA against Drosophila genes, about 0.25 µg dsRNA per well, roughly 10,000 cells
Duration: 5 days of knock-down before the calcium assay
Treatment: thapsigargin (SERCA pump blocker) to empty calcium stores; entry signal taken 4 min after adding it
Measured: 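Duplicate raw fluo-4 intensities per well from a plate reader, at rest and four minutes after thapsigargin emptied calcium stores; entry-to-rest ratio filled for only some wells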
Scale: calcium entry signal: higher = stronger calcium signal after store depletion; entry to resting ratio: higher = more calcium entry relative to resting level; resting calcium signal: higher = higher resting calcium signal
Hit rule: 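Called when the plate z-score of the entry-to-rest ratio, mean of duplicates, falls below −3; wells with low overall dye signal (Fmax z below −2) or more than five off-targets excluded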
Calls: active = strongly reduced calcium entry; inactive = no strong reduction
The screen tested about 23,000 reagents; this is a random part of those that have a named target and a result. In the full data, 75 (0.33%) are marked active. 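Raw plate signals without normalisation; calls rest on plate z-scores that were not deposited; ratio present for only 364 wells.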 Reagents against one gene are numbered here. A plus sign joins genes that one reagent is predicted to hit. Not stated in the record: the dose of the treatment.

| Gene | reagent | calcium entry signal, replicate 1 (fluorescence units) | calcium entry signal, replicate 2 (fluorescence units) | entry to resting ratio | resting calcium signal, replicate 1 (fluorescence units) | resting calcium signal, replicate 2 (fluorescence units) | call |
| --- | --- | --- | --- | --- | --- | --- | --- |
| Pvf3 (PDGF- and VEGF-related factor 3) | 1 | 3.47e7 | 3.56e7 | – | 1.72e7 | 1.75e7 | inactive |
| Pvf3 (PDGF- and VEGF-related factor 3) | 2 | 3.80e7 | 3.45e7 | – | 1.94e7 | 1.74e7 | inactive |
| Pvf3 (PDGF- and VEGF-related factor 3) | 3 | 3.99e7 | 4.05e7 | – | 1.88e7 | 1.87e7 | inactive |
| Pvf3 (PDGF- and VEGF-related factor 3) | 4 | 4.13e7 | 3.53e7 | – | 2.00e7 | 1.65e7 | inactive |
| Zw (Zwischenferment) | 1 | 3.22e7 | 2.97e7 | – | 1.60e7 | 1.39e7 | inactive |
| CG30065 | 1 | 2.36e7 | 4.36e7 | – | 1.18e7 | 1.92e7 | inactive |
| CG12516 | 1 | 3.45e7 | 5.40e7 | – | 1.77e7 | 2.17e7 | inactive |
| Hsf (Heat shock factor) | 1 | 3.41e7 | 3.63e7 | – | 1.59e7 | 1.77e7 | inactive |
| mip130 (Myb-interacting protein 130) | 1 | 3.88e7 | 5.14e7 | 1.9 | 2.06e7 | 2.22e7 | inactive |
| CG6015 | 1 | 1.97e7 | 2.83e7 | – | 1.35e7 | 1.73e7 | active |
| TwdlV (TweedleV) | 1 | 3.53e7 | 5.35e7 | – | 1.70e7 | 2.36e7 | inactive |
| CG13744 | 1 | 4.23e7 | 3.74e7 | – | 1.90e7 | 1.54e7 | inactive |
| GatB (Glutamyl-tRNA amidotransferase, subunit B) | 1 | 5.06e7 | 5.47e7 | – | 2.35e7 | 2.09e7 | inactive |
| Pxn (Peroxidasin) | 1 | 3.85e7 | 3.83e7 | – | 1.85e7 | 1.88e7 | inactive |
| Plp (Pericentrin-like protein) | 1 | 3.46e7 | 4.61e7 | – | 1.83e7 | 1.70e7 | inactive |
| Plp (Pericentrin-like protein) | 2 | 3.63e7 | 5.23e7 | – | 1.68e7 | 1.95e7 | inactive |
| Plp (Pericentrin-like protein) | 3 | 4.02e7 | 5.00e7 | – | 1.81e7 | 3.25e7 | inactive |
| syd (sunday driver) | 1 | 5.39e7 | 3.92e7 | – | 3.55e7 | 1.74e7 | inactive |
| CG33937 (retired record) | 1 | 2.25e7 | 1.84e7 | – | 1.13e7 | 9.97e6 | inactive |
| Oatp58Dc (Organic anion transporting polypeptide 58Dc) | 1 | 3.65e7 | – | – | 1.79e7 | – | inactive |
| CG14107 | 1 | 2.47e7 | 4.50e7 | – | 1.22e7 | 1.75e7 | inactive |
| ppk29 (pickpocket 29) | 1 | 2.77e7 | 3.23e7 | – | 1.57e7 | 1.51e7 | inactive |
| morgue (modifier of rpr and grim, ubiquitously expressed) | 1 | 4.31e7 | – | – | 2.49e7 | – | inactive |

Called active (from the list above):
| Gene | reagent | calcium entry signal, replicate 1 (fluorescence units) | calcium entry signal, replicate 2 (fluorescence units) | entry to resting ratio | resting calcium signal, replicate 1 (fluorescence units) | resting calcium signal, replicate 2 (fluorescence units) | call |
| --- | --- | --- | --- | --- | --- | --- | --- |
| CG6015 | 1 | 1.97e7 | 2.83e7 | – | 1.35e7 | 1.73e7 | active |

The listing continues:
| Gene | reagent | calcium entry signal, replicate 1 (fluorescence units) | calcium entry signal, replicate 2 (fluorescence units) | entry to resting ratio | resting calcium signal, replicate 1 (fluorescence units) | resting calcium signal, replicate 2 (fluorescence units) | call |
| --- | --- | --- | --- | --- | --- | --- | --- |
| CG12909 | 1 | 4.75e7 | 4.56e7 | – | 2.19e7 | 2.07e7 | inactive |
| CG5883 | 1 | 3.04e7 | 4.04e7 | – | 1.61e7 | 1.77e7 | inactive |
| CG6931 | 1 | 4.55e7 | 5.32e7 | – | 2.76e7 | 3.38e7 | inactive |
| CG4238 | 1 | 4.14e7 | 3.54e7 | – | 2.14e7 | 1.63e7 | inactive |
| CG4238 | 2 | 4.12e7 | 4.80e7 | – | 1.83e7 | 1.96e7 | inactive |
| CG12391 | 1 | 2.67e7 | 2.53e7 | – | 1.26e7 | 1.18e7 | inactive |
| CG5139 | 1 | 4.29e7 | 4.78e7 | – | 1.97e7 | 2.12e7 | inactive |
| Phb1 (Prohibitin 1) | 1 | 2.71e7 | – | – | 1.43e7 | – | inactive |
| Spn28F (Serpin 28F) | 1 | 3.30e7 | 4.63e7 | – | 1.45e7 | 1.89e7 | inactive |
| CG10035 | 1 | 3.14e7 | 3.89e7 | – | 1.63e7 | 2.14e7 | inactive |
| Brms1 (BRMS1 transcriptional repressor) | 1 | 2.48e7 | 2.19e7 | – | 1.34e7 | 1.18e7 | inactive |
| CG15572 | 1 | 2.95e7 | 3.54e7 | – | 1.37e7 | 1.65e7 | inactive |
| CG8086 | 1 | 4.97e7 | – | – | 2.19e7 | – | inactive |
| CG8086 | 2 | 3.03e7 | 4.90e7 | – | 1.47e7 | 2.06e7 | inactive |
| CG8500 | 1 | 3.48e7 | 3.22e7 | – | 1.80e7 | 1.64e7 | inactive |
| AnxB10 (Annexin B10) | 1 | 3.33e7 | 3.26e7 | – | 2.10e7 | 1.62e7 | inactive |
| lncRNA:CR31044 (long non-coding RNA::CR31044) | 1 | 2.93e7 | 2.91e7 | – | 1.71e7 | 1.35e7 | inactive |
| Gnptab | 1 | 4.30e7 | 3.99e7 | – | 1.90e7 | 1.84e7 | inactive |
| RpS15 (Ribosomal protein S15) | 1 | 1.39e7 | 9.57e6 | – | 1.17e7 | 7.68e6 | inactive |
| CG4730 | 1 | 3.52e7 | 6.13e7 | – | 1.79e7 | 2.53e7 | inactive |
| Dtwd2 + Obp84a | 1 | 4.21e7 | 4.75e7 | – | 2.22e7 | 2.14e7 | inactive |
| hale (hale-bopp) | 1 | 3.19e7 | 5.79e7 | – | 1.55e7 | 2.10e7 | inactive |
| Usp8 (Ubiquitin specific protease 8) | 1 | 5.72e7 | 4.13e7 | – | 2.81e7 | 1.88e7 | inactive |
| vilya | 1 | 3.39e7 | 5.34e7 | 1.9 | 1.80e7 | 2.09e7 | inactive |
| CG32248 | 1 | 5.05e7 | 4.01e7 | – | 2.68e7 | 1.79e7 | inactive |
| caly (calypso) | 1 | 3.16e7 | 3.82e7 | – | 1.56e7 | 1.85e7 | inactive |
| Bem46 | 1 | 2.42e7 | 2.77e7 | – | 1.28e7 | 1.20e7 | inactive |
| Sarm (Sterile alpha and Armadillo motif) | 1 | 1.99e7 | 3.92e7 | – | 1.25e7 | 1.73e7 | inactive |
| Sarm (Sterile alpha and Armadillo motif) | 2 | 2.51e7 | 4.07e7 | – | 1.52e7 | 1.72e7 | inactive |
| Sarm (Sterile alpha and Armadillo motif) | 3 | 3.35e7 | 4.54e7 | – | 1.56e7 | 1.91e7 | inactive |
| Sarm (Sterile alpha and Armadillo motif) | 4 | 3.53e7 | 4.03e7 | – | 1.79e7 | 1.89e7 | inactive |
| Sarm (Sterile alpha and Armadillo motif) | 5 | 3.21e7 | 3.95e7 | – | 1.57e7 | 1.65e7 | inactive |
| Sarm (Sterile alpha and Armadillo motif) | 6 | 5.06e7 | 4.74e7 | – | 3.46e7 | 1.91e7 | inactive |
| omd (oocyte maintenance defects) | 1 | 2.01e7 | 2.54e7 | – | 1.04e7 | 1.35e7 | inactive |
| Lip3 (Lipase 3) | 1 | 2.59e7 | 2.74e7 | – | 1.39e7 | 1.42e7 | inactive |
